Most values lie at the level of the controls, where differences are scatter.
Legend:
Assay in all cases: normalised response (% of control), CellTox Green; higher = less cell death (100 = DMSO, 0 = benzethonium chloride kill control)
Settings in all cases: incubation time: 72 h
BT-474 [1] = test system: BT-474
Protocol: (§1)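 DSRT, 72 h incubation, CellTox Green / CellTiter-Glo readout. Signal is normalised to DMSO and benzethonium chloride controls. Value is the normalised response at the lowest tested concentration.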

BT-549 [2] = test system: BT-549
Protocol: as §1

CAL-120 [3] = test system: CAL-120
Protocol: as §1

CAL-148 [4] = test system: CAL-148
Protocol: as §1

CAL-51 [5] = test system: CAL-51
Protocol: as §1

CAL-85-1 [6] = test system: CAL-85-1
Protocol: as §1

DU-4475 [7] = test system: DU-4475
Protocol: as §1

HCC1143 [8] = test system: HCC1143
Protocol: as §1

HCC1599 [9] = test system: HCC1599
Protocol: as §1

HCC1937 [10] = test system: HCC1937
Protocol: as §1

Hs578T [11] = test system: Hs578T
Protocol: as §1

MCF-10A [12] = test system: MCF-10A
Protocol: as §1

MDA-MB-231 [13] = test system: MDA-MB-231
Protocol: as §1

MDA-MB-436 [14] = test system: MDA-MB-436
Protocol: as §1

MDA-MB-453 [15] = test system: MDA-MB-453
Protocol: as §1

MDA-MB-468 [16] = test system: MDA-MB-468
Protocol: as §1

MFM-223 [17] = test system: MFM-223
Protocol: as §1

BT-474 [18] = test system: BT-474; remark: listed apart in the source
Protocol: (§2)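 DSRT, 72 h incubation, CellTox Green / CellTiter-Glo readout. Signal is normalised to DMSO and benzethonium chloride controls. Value is the normalised response at dose 2.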

BT-549 [19] = test system: BT-549; remark: listed apart in the source
Protocol: as §2

CAL-120 [20] = test system: CAL-120; remark: listed apart in the source
Protocol: as §2

CAL-148 [21] = test system: CAL-148; remark: listed apart in the source
Protocol: as §2

CAL-51 [22] = test system: CAL-51; remark: listed apart in the source
Protocol: as §2

CAL-85-1 [23] = test system: CAL-85-1; remark: listed apart in the source
Protocol: as §2

DU-4475 [24] = test system: DU-4475; remark: listed apart in the source
Protocol: as §2

HCC1143 [25] = test system: HCC1143; remark: listed apart in the source
Protocol: as §2

HCC1599 [26] = test system: HCC1599; remark: listed apart in the source
Protocol: as §2

HCC1937 [27] = test system: HCC1937; remark: listed apart in the source
Protocol: as §2

HDQ-P1 = test system: HDQ-P1
Protocol: as §2

Hs578T [28] = test system: Hs578T; remark: listed apart in the source
Protocol: as §2

MCF-10A [29] = test system: MCF-10A; remark: listed apart in the source
Protocol: as §2

MDA-MB-231 [30] = test system: MDA-MB-231; remark: listed apart in the source
Protocol: as §2

MDA-MB-436 [31] = test system: MDA-MB-436; remark: listed apart in the source
Protocol: as §2

MDA-MB-453 [32] = test system: MDA-MB-453; remark: listed apart in the source
Protocol: as §2

MDA-MB-468 [33] = test system: MDA-MB-468; remark: listed apart in the source
Protocol: as §2

MFM-223 [34] = test system: MFM-223; remark: listed apart in the source
Protocol: as §2

CN(C)C/C=C/C(=O)Nc1cc2c(Nc3ccc(F)c(Cl)c3)ncnc2cc1O[C@H]1CCOC1 [Afatinib] (0.1 nM)
normalised response (BT-474 [1]): 102% | normalised response (BT-549 [2]): 94.7% | normalised response (CAL-120 [3]): 96.2% | normalised response (CAL-148 [4]): 102% | normalised response (CAL-51 [5]): 111% | normalised response (CAL-85-1 [6]): 98.6% | normalised response (DU-4475 [7]): 101% | normalised response (HCC1143 [8]): 113% | normalised response (HCC1599 [9]): 97.4% | normalised response (HCC1937 [10]): 104% | normalised response (Hs578T [11]): 101% | normalised response (MCF-10A [12]): 99.9% | normalised response (MDA-MB-231 [13]): 107% | normalised response (MDA-MB-436 [14]): 72.8% | normalised response (MDA-MB-453 [15]): 104% | normalised response (MDA-MB-468 [16]): 95.1% | normalised response (MFM-223 [17]): 94.3%

O=C1CN2Cc3c(ccc(Cl)c3Cl)N=C2N1 [Anagrelide] (10 nM)
normalised response (BT-474 [18]): 95% | normalised response (BT-549 [19]): 103% | normalised response (CAL-120 [20]): 103% | normalised response (CAL-148 [21]): 104% | normalised response (CAL-51 [22]): 102% | normalised response (CAL-85-1 [23]): 104% | normalised response (DU-4475 [24]): 95.4% | normalised response (HCC1143 [25]): 79.7% | normalised response (HCC1599 [26]): 96.9% | normalised response (HCC1937 [27]): 102% | normalised response (HDQ-P1): 105% | normalised response (Hs578T [28]): 121% | normalised response (MCF-10A [29]): 84.9% | normalised response (MDA-MB-231 [30]): 90.1% | normalised response (MDA-MB-436 [31]): 89.2% | normalised response (MDA-MB-453 [32]): 100% | normalised response (MDA-MB-468 [33]): 53.7% | normalised response (MFM-223 [34]): 91.3%

N.N.[Cl][Pt][Cl] [Cisplatin] (1 nM)
normalised response (BT-474 [18]): 105% | normalised response (BT-549 [19]): 112% | normalised response (CAL-120 [20]): 102% | normalised response (CAL-148 [21]): 107% | normalised response (CAL-51 [22]): 93.8% | normalised response (CAL-85-1 [23]): 107% | normalised response (DU-4475 [24]): 103% | normalised response (HCC1143 [25]): 84.7% | normalised response (HCC1599 [26]): 103% | normalised response (HCC1937 [27]): 76% | normalised response (HDQ-P1): 117% | normalised response (Hs578T [28]): 129% | normalised response (MCF-10A [29]): 107% | normalised response (MDA-MB-231 [30]): 84.8% | normalised response (MDA-MB-436 [31]): 93.1% | normalised response (MDA-MB-453 [32]): 98.2% | normalised response (MDA-MB-468 [33]): 102% | normalised response (MFM-223 [34]): 102%

Nc1nc(Cl)nc2c1ncn2[C@@H]1O[C@H](CO)[C@@H](O)[C@@H]1F [Clofarabine] (10 nM)
normalised response (BT-474 [18]): 105% | normalised response (BT-549 [19]): 112% | normalised response (CAL-120 [20]): 97.8% | normalised response (CAL-148 [21]): 111% | normalised response (CAL-51 [22]): 69% | normalised response (CAL-85-1 [23]): 111% | normalised response (DU-4475 [24]): 100% | normalised response (HCC1143 [25]): 103% | normalised response (HCC1599 [26]): 108% | normalised response (HCC1937 [27]): 119% | normalised response (HDQ-P1): 68.2% | normalised response (Hs578T [28]): 124% | normalised response (MCF-10A [29]): 90.4% | normalised response (MDA-MB-231 [30]): 132% | normalised response (MDA-MB-436 [31]): 95.6% | normalised response (MDA-MB-453 [32]): 101% | normalised response (MDA-MB-468 [33]): 122% | normalised response (MFM-223 [34]): 106%

C#Cc1cccc(Nc2ncnc3cc(OCCOC)c(OCCOC)cc23)c1 [Erlotinib] (10 nM)
normalised response (BT-474 [18]): 102% | normalised response (BT-549 [19]): 86.1% | normalised response (CAL-120 [20]): 101% | normalised response (CAL-148 [21]): 108% | normalised response (CAL-51 [22]): 97.9% | normalised response (CAL-85-1 [23]): 98.8% | normalised response (DU-4475 [24]): 101% | normalised response (HCC1143 [25]): 117% | normalised response (HCC1599 [26]): 108% | normalised response (HCC1937 [27]): 97.5% | normalised response (HDQ-P1): 118% | normalised response (Hs578T [28]): 114% | normalised response (MCF-10A [29]): 103% | normalised response (MDA-MB-231 [30]): 111% | normalised response (MDA-MB-436 [31]): 91.5% | normalised response (MDA-MB-453 [32]): 99.8% | normalised response (MDA-MB-468 [33]): 82.3% | normalised response (MFM-223 [34]): 103%

C=C1C[C@@H]2[C@H](CC[C@]3(C)C(=O)CC[C@@H]23)[C@@]2(C)C=CC(=O)C=C12 [Exemestane] (10 nM)
normalised response (BT-474 [18]): 105% | normalised response (BT-549 [19]): 104% | normalised response (CAL-120 [20]): 103% | normalised response (CAL-148 [21]): 109% | normalised response (CAL-51 [22]): 99.6% | normalised response (CAL-85-1 [23]): 102% | normalised response (DU-4475 [24]): 114% | normalised response (HCC1143 [25]): 97% | normalised response (HCC1599 [26]): 116% | normalised response (HCC1937 [27]): 89.5% | normalised response (HDQ-P1): 70.9% | normalised response (Hs578T [28]): 132% | normalised response (MCF-10A [29]): 59.9% | normalised response (MDA-MB-231 [30]): 115% | normalised response (MDA-MB-436 [31]): 106% | normalised response (MDA-MB-453 [32]): 104% | normalised response (MDA-MB-468 [33]): 101% | normalised response (MFM-223 [34]): 99.7%

NC1(c2ccc(-c3nc4ccn5c(=O)[nH]nc5c4cc3-c3ccccc3)cc2)CCC1 [MK-2206] (1 nM)
normalised response (BT-474 [18]): 99.1% | normalised response (BT-549 [19]): 101% | normalised response (CAL-120 [20]): 108% | normalised response (CAL-148 [21]): 110% | normalised response (CAL-51 [22]): 101% | normalised response (CAL-85-1 [23]): 103% | normalised response (DU-4475 [24]): 115% | normalised response (HCC1143 [25]): 120% | normalised response (HCC1599 [26]): 118% | normalised response (HCC1937 [27]): 100% | normalised response (HDQ-P1): 124% | normalised response (Hs578T [28]): 127% | normalised response (MCF-10A [29]): 120% | normalised response (MDA-MB-231 [30]): 111% | normalised response (MDA-MB-436 [31]): 95% | normalised response (MDA-MB-453 [32]): 104% | normalised response (MDA-MB-468 [33]): 93.4% | normalised response (MFM-223 [34]): 103%

COc1nc(N)nc2c1ncn2[C@@H]1O[C@H](CO)[C@@H](O)[C@@H]1O [Nelarabine] (1 nM)
normalised response (BT-474 [1]): 97.9% | normalised response (BT-549 [2]): 102% | normalised response (CAL-120 [3]): 99.7% | normalised response (CAL-148 [4]): 93.1% | normalised response (CAL-51 [5]): 111% | normalised response (CAL-85-1 [6]): 106% | normalised response (DU-4475 [7]): 93% | normalised response (HCC1143 [8]): 104% | normalised response (HCC1599 [9]): 86.6% | normalised response (HCC1937 [10]): 61.8% | normalised response (Hs578T [11]): 96% | normalised response (MCF-10A [12]): -9.84% | normalised response (MDA-MB-231 [13]): 85.2% | normalised response (MDA-MB-436 [14]): 90.9% | normalised response (MDA-MB-453 [15]): 95.1% | normalised response (MDA-MB-468 [16]): 111% | normalised response (MFM-223 [17]): 96.4%

Cn1nnc2c(C(N)=O)ncn2c1=O [Temozolomide] (1 nM)
normalised response (BT-474 [1]): 90.9% | normalised response (BT-549 [2]): 100% | normalised response (CAL-120 [3]): 102% | normalised response (CAL-51 [5]): 88.2% | normalised response (CAL-85-1 [6]): 104% | normalised response (DU-4475 [7]): 99.7% | normalised response (HCC1143 [8]): 103% | normalised response (HCC1599 [9]): 100% | normalised response (HCC1937 [10]): 95% | normalised response (Hs578T [11]): 101% | normalised response (MCF-10A [12]): 110% | normalised response (MDA-MB-231 [13]): 54.2% | normalised response (MDA-MB-436 [14]): 93.6% | normalised response (MDA-MB-453 [15]): 101% | normalised response (MDA-MB-468 [16]): 74.7% | normalised response (MFM-223 [17]): 91.5%
